Data from paper doi:10.1101/2021.07.08.451629.
These are yes or no findings as the source states them, for the method shown. In cells and extracts the contact can be indirect. Some results given as binding are weak or reduced against the parent protein; the word gives no strength. Tags and fused reporters may be left off the sequences shown.

Chains of the proteins cited; added tags and fusions are not shown.
UniProt Q8C1W1: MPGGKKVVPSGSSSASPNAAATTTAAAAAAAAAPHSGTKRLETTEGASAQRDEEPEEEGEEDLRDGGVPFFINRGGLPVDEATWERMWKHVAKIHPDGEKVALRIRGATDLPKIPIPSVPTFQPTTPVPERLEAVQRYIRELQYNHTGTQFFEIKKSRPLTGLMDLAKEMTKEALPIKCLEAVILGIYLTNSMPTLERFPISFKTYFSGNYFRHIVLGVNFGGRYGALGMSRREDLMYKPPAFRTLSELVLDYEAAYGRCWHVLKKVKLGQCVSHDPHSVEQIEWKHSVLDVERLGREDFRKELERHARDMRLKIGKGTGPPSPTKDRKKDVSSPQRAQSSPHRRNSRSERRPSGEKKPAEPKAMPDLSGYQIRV

Biological target: T1, SVBP-myc (small vasohibin binding protein) (UniProt Q99LQ4)
T1 sequence: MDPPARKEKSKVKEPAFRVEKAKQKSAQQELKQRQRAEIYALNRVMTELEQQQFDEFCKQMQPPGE
Assay: co-IP

binding: binds
Substance: flag-vash1-GFP (mouse vasohibin 1) (from UniProt Q8C1W1 1-375) (enzyme)
